Laboratory results reported in patent publication EP0877031A1, “TGF-Beta1 derived peptides mimicking the activity of transforming growth factor-Beta1” (INSTITUUT VOOR DIERHOUDERIJ EN DIERGEZONDHEID (ID-DLO), priority 1997, dated 1998).
Not every detail of the peptide structures is certain; ends, links or a residue may be inferred. Some compounds share one wording; it may come from a single statement. Residues, ends and D or L forms follow the SMILES beside them.

Experiments:
[1] = test system: Mink lung epithelial cells (Mv 1 Lu); assay: Mv 1 Lu growth inhibition assay for agonistic TGF activity (peptides alone, acid phosphatase readout); assay type: cell-based; conditions: peptide alone, 5 days of incubation, acid phosphatase activity as marker for cell growth
Experimental: (§1) An assay for TGF-β1 biological activity, bases on Mink lung epithelial cells (Mv 1 Lu), was used for analysis of the biological activity of peptides derived from the human TGF-β1 primary sequence. This assay is based on growth inhibition of Mv 1 Lu cells in presence of TGF-β1. Inhihition of Mv 1 Lu growth is quantified by acid phosphatase activity as a marker for cell growth.
(§2) Mink lung epithelial cells (Mv 1 Lu) were plated in 96-well tissue culture plates (Costar, Cambridge, MA) at 100 cells/well in 100 µl Eagle's MEM supplemented with 20IE/ml penicillin, 1 mg/ml streptomycin, 0.4 mM L-glutamine, 10 mM HEPES and 10% FCS (HyClone, Logan, UT). Plates were incubated at 37°C and 5% CO2 in a humidified incubator for 1.5 h to allow cell attachment. After cell attachment peptides were added in a volume of 50 µl in Eagle's MEM supplemented with 20IE/ml penicillin, 1 mg/ml streptomycin, 0.4 mM L-glutamine, 10 mM HEPES and 10% FCS and titrated with eight threefold dilutions of peptide. The cells were subsequently incubated for 5 days at 37°C and 5% CO2 in a humidified incubator. After incubation cell growth was monitored using acid phosphatase activity as a marker: The plates were washed twice with 200 µl PBS per well and 100 µl of substrate solution (0.1 M sodium acetate, 0,1% Triton X-100, 3.7 mg/ml p-nitrophenyl phosphate, pH 5.5) were added to each well. The plates were then incubated for 1.5 h at 37°C, after which 25 µl of 0.4 M NaOH were added to each well. Acid phosphatase activity was detected by measuring the OD of the substrate solution using an microplate reader at 405 nm.
In this example, all peptides comprising 12 amino acids prepared as described under the head "Peptide synthesis", were tested in the Mv 1 Lu growth inhibition assay. In this assay peptides were titrated in eight threefold dilutions, starting with a peptide quantity of 10-100 µg per well. After 5 days of incubation the wells were tested for acid phosphatase activity.

[2] = test system: Mink lung epithelial cells (Mv 1 Lu); assay: Mv 1 Lu growth inhibition assay, preincubation with peptides followed by a suboptimal quantity of TGF-β1; assay type: cell-based; conditions: 4 h preincubation with peptide, then suboptimal 3.3 x 10^-3 µM TGF-β1, 5 days of incubation
Experimental: as §1, §2
In this example Mv 1 Lu cells were preincubated with TGF-β1 derived peptides which were titrated in eight threefold dilutions, starting with a peptide quantity of 10-100 µg per well. After 4 h of preincubation a suboptimal quantity of 3.3 x 10^-3 µM TGF-β1. The TGF-β1 (R&D systems, M1) Porcine TGF-β1 is 100% homologue to humam TGF-β1 (Roberts et al. in Handbook of Experimental Pharmacology, Editors Sporn, M.B.; Robers A.B.; Springer Verlag Heidelberg (1990), 95, 419) was added. After 5 days of incubation the wells were tested for acid phosphatase activity.

For `CC(C)C[C@H](NC(=O)[C@H](CS)NC(=O)[C@H](Cc1ccccc1)NC(=O)[C@H](CC(N)=O)NC(=O)[C@H](C)NC(=O)[C@H](Cc1c[nH]cn1)NC(=O)[C@H](Cc1ccc(O)cc1)NC(=O)CNC(=O)[C@H](CCCCN)NC(=O)[C@@H]1CCCN1C(=O)[C@H](CCC(=O)O)NC(=O)[C@@H](N)Cc1c[nH]cn1)C(=O)O` [HEPKGYHANFCL] (H-HEPKGYHANFCL-OH), the “growth inhibition of mink lung epithelial cells (TGF agonist activity)” value [1] was “inhibited the growth of mink lung epithelial cells in a similar way as TGF-β1 does” and the “enhanced inhibition of the growth of mink lung epithelial cells when combined with TGF-β1 (synergistic effect)” value [2] was “enhanced inhibition of the growth of the mink lung epithelial cells”.
